Results published in publication PMC12650596.
Results are given in words; binding and its absence hold for the method and conditions named. Binding seen in cells or lysates may run through a third protein. Here binding means that the protein was enriched with, or labelled near, the bait; the list need not be complete. No binding means not detected with the bait. Tags and fused reporters may be left off the sequences shown.

Amino acid sequences for entries named in this document (tags omitted). A change or cut given only in a name is not applied to a line headed by its entry.
UniProt Q00341: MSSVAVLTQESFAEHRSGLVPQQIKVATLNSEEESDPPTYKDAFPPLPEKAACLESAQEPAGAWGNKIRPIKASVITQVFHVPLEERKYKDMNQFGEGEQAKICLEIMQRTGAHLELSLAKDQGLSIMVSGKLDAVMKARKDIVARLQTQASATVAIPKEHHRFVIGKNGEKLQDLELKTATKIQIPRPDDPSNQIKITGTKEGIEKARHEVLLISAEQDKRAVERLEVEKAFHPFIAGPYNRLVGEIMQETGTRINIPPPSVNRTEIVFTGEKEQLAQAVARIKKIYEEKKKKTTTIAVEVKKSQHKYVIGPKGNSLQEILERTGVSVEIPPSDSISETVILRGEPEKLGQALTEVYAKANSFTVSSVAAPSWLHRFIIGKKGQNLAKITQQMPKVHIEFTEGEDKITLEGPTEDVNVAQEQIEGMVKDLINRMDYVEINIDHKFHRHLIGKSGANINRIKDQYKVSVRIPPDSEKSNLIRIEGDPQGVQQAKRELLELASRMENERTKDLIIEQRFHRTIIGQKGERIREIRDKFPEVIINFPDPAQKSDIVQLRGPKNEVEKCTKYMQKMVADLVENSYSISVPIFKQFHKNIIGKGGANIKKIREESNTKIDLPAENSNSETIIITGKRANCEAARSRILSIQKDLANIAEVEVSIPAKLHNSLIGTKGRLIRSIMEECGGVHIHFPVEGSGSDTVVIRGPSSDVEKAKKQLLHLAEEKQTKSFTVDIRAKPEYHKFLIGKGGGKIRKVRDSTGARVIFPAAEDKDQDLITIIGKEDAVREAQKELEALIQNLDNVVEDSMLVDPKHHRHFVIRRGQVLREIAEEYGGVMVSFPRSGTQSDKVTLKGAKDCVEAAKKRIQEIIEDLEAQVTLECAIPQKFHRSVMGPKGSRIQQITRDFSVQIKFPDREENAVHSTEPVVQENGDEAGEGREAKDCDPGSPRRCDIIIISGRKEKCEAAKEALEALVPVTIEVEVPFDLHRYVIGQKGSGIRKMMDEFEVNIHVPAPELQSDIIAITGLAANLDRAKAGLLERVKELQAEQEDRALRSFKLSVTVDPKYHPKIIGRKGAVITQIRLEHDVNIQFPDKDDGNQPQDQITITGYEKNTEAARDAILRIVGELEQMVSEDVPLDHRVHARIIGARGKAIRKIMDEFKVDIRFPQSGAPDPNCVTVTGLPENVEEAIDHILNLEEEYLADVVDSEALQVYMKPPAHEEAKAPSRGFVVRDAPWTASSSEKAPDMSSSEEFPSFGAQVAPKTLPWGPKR
UniProt P11940: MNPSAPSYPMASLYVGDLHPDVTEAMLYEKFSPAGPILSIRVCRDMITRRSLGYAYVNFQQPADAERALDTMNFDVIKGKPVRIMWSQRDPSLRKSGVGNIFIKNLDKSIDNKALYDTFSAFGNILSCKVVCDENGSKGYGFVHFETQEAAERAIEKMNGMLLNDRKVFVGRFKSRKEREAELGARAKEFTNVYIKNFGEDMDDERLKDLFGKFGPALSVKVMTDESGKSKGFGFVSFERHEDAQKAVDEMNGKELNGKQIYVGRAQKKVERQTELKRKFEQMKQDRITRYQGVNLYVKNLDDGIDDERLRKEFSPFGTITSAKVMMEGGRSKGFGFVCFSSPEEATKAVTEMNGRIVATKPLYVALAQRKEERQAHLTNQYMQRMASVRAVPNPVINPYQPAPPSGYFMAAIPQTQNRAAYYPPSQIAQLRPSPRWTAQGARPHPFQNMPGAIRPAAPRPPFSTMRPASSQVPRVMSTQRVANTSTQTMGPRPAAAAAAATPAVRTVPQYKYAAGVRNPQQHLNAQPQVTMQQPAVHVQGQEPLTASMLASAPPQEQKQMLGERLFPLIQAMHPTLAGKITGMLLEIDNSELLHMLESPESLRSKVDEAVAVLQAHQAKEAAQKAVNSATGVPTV
UniProt Q8N3R9: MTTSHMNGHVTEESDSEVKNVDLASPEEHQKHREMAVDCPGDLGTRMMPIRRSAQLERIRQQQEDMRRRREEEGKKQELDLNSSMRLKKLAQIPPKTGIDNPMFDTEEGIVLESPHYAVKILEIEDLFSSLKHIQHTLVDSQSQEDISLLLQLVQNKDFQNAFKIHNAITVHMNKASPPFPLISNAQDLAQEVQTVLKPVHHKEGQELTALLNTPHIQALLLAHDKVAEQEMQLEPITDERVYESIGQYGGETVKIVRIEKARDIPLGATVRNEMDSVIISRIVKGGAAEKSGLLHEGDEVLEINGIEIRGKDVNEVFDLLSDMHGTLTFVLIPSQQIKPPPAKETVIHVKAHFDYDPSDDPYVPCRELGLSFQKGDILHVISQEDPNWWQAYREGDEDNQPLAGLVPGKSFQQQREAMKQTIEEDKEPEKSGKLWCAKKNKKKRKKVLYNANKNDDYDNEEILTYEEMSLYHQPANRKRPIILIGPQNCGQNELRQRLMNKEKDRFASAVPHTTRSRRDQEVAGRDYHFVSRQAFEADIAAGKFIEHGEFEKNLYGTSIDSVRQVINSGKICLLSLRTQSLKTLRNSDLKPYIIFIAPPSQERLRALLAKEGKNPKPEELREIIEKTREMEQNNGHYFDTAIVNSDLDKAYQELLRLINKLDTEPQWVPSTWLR
UniProt P20020: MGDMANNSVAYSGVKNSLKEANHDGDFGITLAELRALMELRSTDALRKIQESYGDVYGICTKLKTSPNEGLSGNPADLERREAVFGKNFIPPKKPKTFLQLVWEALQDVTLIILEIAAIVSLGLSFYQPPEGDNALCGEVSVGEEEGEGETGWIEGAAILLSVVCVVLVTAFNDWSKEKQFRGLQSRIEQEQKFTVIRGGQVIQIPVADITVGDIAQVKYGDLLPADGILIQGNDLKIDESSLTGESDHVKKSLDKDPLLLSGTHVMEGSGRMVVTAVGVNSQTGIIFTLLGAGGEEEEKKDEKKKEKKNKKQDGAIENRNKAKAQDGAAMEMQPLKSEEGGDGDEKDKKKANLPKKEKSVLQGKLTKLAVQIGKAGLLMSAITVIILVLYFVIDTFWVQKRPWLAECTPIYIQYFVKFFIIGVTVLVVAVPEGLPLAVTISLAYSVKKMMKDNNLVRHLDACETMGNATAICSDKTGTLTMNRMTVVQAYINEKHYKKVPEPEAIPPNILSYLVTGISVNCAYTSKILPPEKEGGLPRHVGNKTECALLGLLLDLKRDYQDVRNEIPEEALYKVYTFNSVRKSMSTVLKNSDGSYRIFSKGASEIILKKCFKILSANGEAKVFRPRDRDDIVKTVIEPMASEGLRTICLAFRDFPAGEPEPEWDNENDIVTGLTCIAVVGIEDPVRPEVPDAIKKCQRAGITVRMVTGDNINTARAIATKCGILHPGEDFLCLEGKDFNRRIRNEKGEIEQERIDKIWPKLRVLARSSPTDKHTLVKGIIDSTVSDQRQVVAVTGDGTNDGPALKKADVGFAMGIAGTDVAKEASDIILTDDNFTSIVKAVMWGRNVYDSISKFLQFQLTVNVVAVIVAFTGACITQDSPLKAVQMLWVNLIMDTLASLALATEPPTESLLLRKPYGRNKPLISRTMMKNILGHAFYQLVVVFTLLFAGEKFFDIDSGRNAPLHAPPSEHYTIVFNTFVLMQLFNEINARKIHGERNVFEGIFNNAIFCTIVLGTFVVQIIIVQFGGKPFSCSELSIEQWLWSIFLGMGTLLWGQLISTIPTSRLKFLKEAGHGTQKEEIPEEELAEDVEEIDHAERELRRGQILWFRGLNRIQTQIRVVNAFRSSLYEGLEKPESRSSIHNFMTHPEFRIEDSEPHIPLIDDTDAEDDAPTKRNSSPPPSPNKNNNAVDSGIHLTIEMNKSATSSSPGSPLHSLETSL
UniProt P05556: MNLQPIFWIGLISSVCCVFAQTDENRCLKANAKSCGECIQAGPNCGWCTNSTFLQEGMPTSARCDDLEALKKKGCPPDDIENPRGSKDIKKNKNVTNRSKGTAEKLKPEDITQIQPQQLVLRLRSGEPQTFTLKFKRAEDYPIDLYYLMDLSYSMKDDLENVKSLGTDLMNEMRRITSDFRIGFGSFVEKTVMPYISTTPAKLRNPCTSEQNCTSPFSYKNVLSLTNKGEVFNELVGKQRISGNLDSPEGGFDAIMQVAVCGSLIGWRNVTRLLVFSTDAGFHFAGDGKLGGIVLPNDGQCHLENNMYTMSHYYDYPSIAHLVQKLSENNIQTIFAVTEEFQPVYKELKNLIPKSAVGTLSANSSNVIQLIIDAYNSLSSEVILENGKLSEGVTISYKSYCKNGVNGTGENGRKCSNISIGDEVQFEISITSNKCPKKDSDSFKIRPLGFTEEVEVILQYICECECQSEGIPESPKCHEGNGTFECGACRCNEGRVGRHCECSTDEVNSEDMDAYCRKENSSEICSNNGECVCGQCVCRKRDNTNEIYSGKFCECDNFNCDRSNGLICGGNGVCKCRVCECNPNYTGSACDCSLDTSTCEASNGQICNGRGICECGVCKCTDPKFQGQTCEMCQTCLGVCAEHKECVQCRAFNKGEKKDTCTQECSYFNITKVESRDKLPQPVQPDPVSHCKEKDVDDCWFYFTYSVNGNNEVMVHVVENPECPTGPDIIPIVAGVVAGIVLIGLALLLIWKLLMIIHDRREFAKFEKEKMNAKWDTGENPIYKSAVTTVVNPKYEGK

T1: EGFP-hPMP22-BioID2 recombinant fusion protein (peripheral myelin protein 22) (human) (UniProt Q01453)
T1 sequence: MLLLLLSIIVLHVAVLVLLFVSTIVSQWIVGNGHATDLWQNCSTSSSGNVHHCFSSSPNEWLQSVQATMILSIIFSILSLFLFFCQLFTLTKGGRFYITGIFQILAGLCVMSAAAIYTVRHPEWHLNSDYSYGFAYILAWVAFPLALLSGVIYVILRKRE

B1: Treacle protein (TCOF1) (protein, UniProt Q13428 1-1488)
chain: MAEARKRRELLPLIYHHLLRAGYVRAAREVKEQSGQKCFLAQPVTLLDIYTHWQQTSELGRKRKAEEDAALQAKKTRVSDPISTSESSEEEEEAEAETAKATPRLASTNSSVLGADLPSSMKEKAKAETEKAGKTGNSMPHPATGKTVANLLSGKSPRKSAEPSANTTLVSETEEEGSVPAFGAAAKPGMVSAGQADSSSEDTSSSSDETDVEGKPSVKPAQVKASSVSTKESPARKAAPAPGKVGDVTPQVKGGALPPAKRAKKPEEESESSEEGSESEEEAPAGTRSQVKASEKILQVRAASAPAKGTPGKGATPAPPGKAGAVASQTKAGKPEEDSESSSEESSDSEEETPAAKALLQAKASGKTSQVGAASAPAKESPRKGAAPAPPGKTGPAVAKAQAGKREEDSQSSSEESDSEEEAPAQAKPSGKAPQVRAASAPAKESPRKGAAPAPPRKTGPAAAQVQVGKQEEDSRSSSEESDSDREALAAMNAAQVKPLGKSPQVKPASTMGMGPLGKGAGPVPPGKVGPATPSAQVGKWEEDSESSSEESSDSSDGEVPTAVAPAQEKSLGNILQAKPTSSPAKGPPQKAGPVAVQVKAEKPMDNSESSEESSDSADSEEAPAAMTAAQAKPALKIPQTKACPKKTNTTASAKVAPVRVGTQAPRKAGTATSPAGSSPAVAGGTQRPAEDSSSSEESDSEEEKTGLAVTVGQAKSVGKGLQVKAASVPVKGSLGQGTAPVLPGKTGPTVTQVKAEKQEDSESSEEESDSEEAAASPAQVKTSVKKTQAKANPAAARAPSAKGTISAPGKVVTAAAQAKQRSPSKVKPPVRNPQNSTVLARGPASVPSVGKAVATAAQAQTGPEEDSGSSEEESDSEEEAETLAQVKPSGKTHQIRAALAPAKESPRKGAAPTPPGKTGPSAAQAGKQDDSGSSSEESDSDGEAPAAVTSAQVIKPPLIFVDPNRSPAGPAATPAQAQAASTPRKARASESTARSSSSESEDEDVIPATQCLTPGIRTNVVTMPTAHPRIAPKASMAGASSSKESSRISDGKKQEGPATQVSKKNPASLPLTQAALKVLAQKASEAQPPVARTQPSSGVDSAVGTLPATSPQSTSVQAKGTNKLRKPKLPEVQQATKAPESSDDSEDSSDSSSGSEEDGEGPQGAKSAHTLGPTPSRTETLVEETAAESSEDDVVAPSQSLLSGYMTPGLTPANSQASKATPKLDSSPSVSSTLAAKDDPDGKQEAKPQQAAGMLSPKTGGKEAASGTTPQKSRKPKKGAGNPQASTLALQSNITQCLLGQPWPLNEAQVQASVVKVLTELLEQERKKVVDTTKESSRKGWESRKRKLSGDQPAARTPRSKKKKKLGAGEGGEASVSPEKTSTTSKGKAKRDKASGDVKEKKGKGSLGSQGAKDEPEEELQKGMGTVEGGDQSNPKSKKEKKKSDKRKKDKEKKEKKKKAKKASTKDSESPSQKKKKKKKKTAEQTV
B2: Glutamine--tRNA ligase (QARS1) (enzyme, UniProt P47897 1-775)
chain: MAALDSLSLFTSLGLSEQKARETLKNSALSAQLREAATQAQQTLGSTIDKATGILLYGLASRLRDTRRLSFLVSYIASKKIHTEPQLSAALEYVRSHPLDPIDTVDFERECGVGVIVTPEQIEEAVEAAINRHRPQLLVERYHFNMGLLMGEARAVLKWADGKMIKNEVDMQVLHLLGPKLEADLEKKFKVAKARLEETDRRTAKDVVENGETADQTLSLMEQLRGEALKFHKPGENYKTPGYVVTPHTMNLLKQHLEITGGQVRTRFPPEPNGILHIGHAKAINFNFGYAKANNGICFLRFDDTNPEKEEAKFFTAICDMVAWLGYTPYKVTYASDYFDQLYAWAVELIRRGLAYVCHQRGEELKGHNTLPSPWRDRPMEESLLLFEAMRKGKFSEGEATLRMKLVMEDGKMDPVAYRVKYTPHHRTGDKWCIYPTYDYTHCLCDSIEHITHSLCTKEFQARRSSYFWLCNALDVYCPVQWEYGRLNLHYAVVSKRKILQLVATGAVRDWDDPRLFTLTALRRRGFPPEAINNFCARVGVTVAQTTMEPHLLEACVRDVLNDTAPRAMAVLESLRVIITNFPAAKSLDIQVPNFPADETKGFHQVPFAPIVFIERTDFKEEPEPGFKRLAWGQPVGLRHTGYVIELQHVVKGPSGCVESLEVTCRRADAGEKPKAFIHWVSQPLMCEVRLYERLFQHKNPEDPTEVPGGFLSDLNLASLHVVDAALVDCSVALAKPFDKFQFERLGYFSVDPDSHQGKLVFNRTVTLKEDPGKV
B3: Structural maintenance of chromosomes protein (SMC1A) (protein, UniProt Q14683 1-1233)
chain: MGFLKLIEIENFKSYKGRQIIGPFQRFTAIIGPNGSGKSNLMDAISFVLGEKTSNLRVKTLRDLIHGAPVGKPAANRAFVSMVYSEEGAEDRTFARVIVGGSSEYKINNKVVQLHEYSEELEKLGILIKARNFLVFQGAVESIAMKNPKERTALFEEISRSGELAQEYDKRKKEMVKAEEDTQFNYHRKKNIAAERKEAKQEKEEADRYQRLKDEVVRAQVQLQLFKLYHNEVEIEKLNKELASKNKEIEKDKKRMDKVEDELKEKKKELGKMMREQQQIEKEIKEKDSELNQKRPQYIKAKENTSHKIKKLEAAKKSLQNAQKHYKKRKGDMDELEKEMLSVEKARQEFEERMEEESQSQGRDLTLEENQVKKYHRLKEEASKRAATLAQELEKFNRDQKADQDRLDLEERKKVETEAKIKQKLREIEENQKRIEKLEEYITTSKQSLEEQKKLEGELTEEVEMAKRRIDEINKELNQVMEQLGDARIDRQESSRQQRKAEIMESIKRLYPGSVYGRLIDLCQPTQKKYQIAVTKVLGKNMDAIIVDSEKTGRDCIQYIKEQRGEPETFLPLDYLEVKPTDEKLRELKGAKLVIDVIRYEPPHIKKALQYACGNALVCDNVEDARRIAFGGHQRHKTVALDGTLFQKSGVISGGASDLKAKARRWDEKAVDKLKEKKERLTEELKEQMKAKRKEAELRQVQSQAHGLQMRLKYSQSDLEQTKTRHLALNLQEKSKLESELANFGPRINDIKRIIQSREREMKDLKEKMNQVEDEVFEEFCREIGVRNIREFEEEKVKRQNEIAKKRLEFENQKTRLGIQLDFEKNQLKEDQDKVHMWEQTVKKDENEIEKLKKEEQRHMKIIDETMAQLQDLKNQHLAKKSEVNDKNHEMEEIRKKLGGANKEMTHLQKEVTAIETKLEQKRSDRHNLLQACKMQDIKLPLSKGTMDDISQEEGSSQGEDSVSGSQRISSIYAREALIEIDYGDLCEDLKDAQAEEEIKQEMNTLQQKLNEQQSVLQRIAAPNMKAMEKLESVRDKFQETSDEFEAARKRAKKAKQAFEQIKKERFDRFNACFESVATNIDEIYKALSRNSSAQAFLGPENPEEPYLDGINYNCVAPGKRFRPMDNLSGGEKTVAALALLFAIHSYKPAPFFVLDEIDAALDNTNIGKVANYIKEQSTCNFQAIVISLKEEFYTKAESLIGVYPEQGDCVISKVLTFDLTKYPDANPNPNEQ
B4: Isoform 13 of Sodium bicarbonate cotransporter 3 (SLC4A7) (protein, UniProt Q9Y6M7-13 1-1135)
chain: MEADGAGEQMRPLLTRVTSRGPDEEAVVDLGKTSSTVNTKFEKEELESHRAVYIGVHVPFSKESRRRHRHRGHKHHHRRRKDKESDKEDGRESPSYDTPSQRVQFILGTEDDDEEHIPHDLFTEMDELCYRDGEEYEWKETARWLKFEEDVEDGGDRWSKPYVATLSLHSLFELRSCILNGTVMLDMRASTLDEIADMVLDNMIASGQLDESIRENVREALLKRHHHQNEKRFTSRIPLVRSFADIGKKHSDPHLLERNGILASPQSAPGNLDNSKSGEIKGNGSGGSRENSTVDFSKVDMNFMRKIPTGAEASNVLVGEVDFLERPIIAFVRLAPAVLLTGLTEVPVPTRFLFLLLGPAGKAPQYHEIGRSIATLMTDEIFHDVAYKAKDRNDLLSGIDEFLDQVTVLPPGEWDPSIRIEPPKSVPSQEKRKIPVFHNGSTPTLGETPKEAAHHAGPELQRTGRLFGGLILDIKRKAPFFLSDFKDALSLQCLASILFLYCACMSPVITFGGLLGEATEGRISAIESLFGASLTGIAYSLFAGQPLTILGSTGPVLVFEKILYKFCRDYQLSYLSLRTSIGLWTSFLCIVLVATDASSLVCYITRFTEEAFAALICIIFIYEALEKLFDLGETYAFNMHNNLDKLTSYSCVCTEPPNPSNETLAQWKKDNITAHNISWRNLTVSECKKLRGVFLGSACGHHGPYIPDVLFWCVILFFTTFFLSSFLKQFKTKRYFPTKVRSTISDFAVFLTIVIMVTIDYLVGVPSPKLHVPEKFEPTHPERGWIISPLGDNPWWTLLIAAIPALLCTILIFMDQQITAVIINRKEHKLKKGAGYHLDLLMVGVMLGVCSVMGLPWFVAATVLSISHVNSLKVESECSAPGEQPKFLGIREQRVTGLMIFILMGLSVFMTSVLKFIPMPVLYGVFLYMGVSSLKGIQLFDRIKLFGMPAKHQPDLIYLRYVPLWKVHIFTVIQLTCLVLLWVIKVSAAAVVFPMMVLALVFVRKLMDLCFTKRELSWLDDLMPESKKKKEDDKKKKEKEEAERMLQDDDDTVHLPFEGGSLLQIPVKALKYSVDPSIVNISDEMAKTAQWKALSMNTENAKVTRSNMSPDKPVSVKISFEDEPRKKYVDAETSL
B5: DNA replication licencing factor MCM5 (MCM5) (protein, UniProt P33992 1-734)
chain: MSGFDDPGIFYSDSFGGDAQADEGQARKSQLQRRFKEFLRQYRVGTDRTGFTFKYRDELKRHYNLGEYWIEVEMEDLASFDEDLADYLYKQPAEHLQLLEEAAKEVADEVTRPRPSGEEVLQDIQVMLKSDASPSSIRSLKSDMMSHLVKIPGIIIAASAVRAKATRISIQCRSCRNTLTNIAMRPGLEGYALPRKCNTDQAGRPKCPLDPYFIMPDKCKCVDFQTLKLQELPDAVPHGEMPRHMQLYCDRYLCDKVVPGNRVTIMGIYSIKKFGLTTSRGRDRVGVGIRSSYIRVLGIQVDTDGSGRSFAGAVSPQEEEEFRRLAALPNVYEVISKSIAPSIFGGTDMKKAIACLLFGGSRKRLPDGLTRRGDINLLMLGDPGTAKSQLLKFVEKCSPIGVYTSGKGSSAAGLTASVMRDPSSRNFIMEGGAMVLADGGVVCIDEFDKMREDDRVAIHEAMEQQTISIAKAGITTTLNSRCSVLAAANSVFGRWDETKGEDNIDFMPTILSRFDMIFIVKDEHNEERDVMLAKHVITLHVSALTQTQAVEGEIDLAKLKKFIAYCRVKCGPRLSAEAAEKLKNRYIIMRSGARQHERDSDRRSSIPITVRQLEAIVRIAEALSKMKLQPFATEADVEEALRLFQVSTLDAALSGTLSGVEGFTSQEDQEMLSRIEKQLKRRFAIGSQVSEHSIIKDFTKQKYPEHAIHKVLQLMLRRGEIQHRMQRKVLYRLK

Target: T1, EGFP-hPMP22-BioID2 recombinant fusion protein (peripheral myelin protein 22) (human)
Test: proximity labelling; BioID2 in live stably transfected human Schwann cells, 50 µM biotin for 3 days; RIPA extract, streptavidin Dynabeads pull-down of biotinylated proteins, trypsin digest, LC-MS/MS; compared with control-transfected (EGFP-BioID2) and untransfected CRL cells

| binding | Molecule |
| --- | --- |
| binds | Vigilin (Fragment) (HDLBP) (from UniProt Q00341 1-1268) |
| binds | Polyadenylate-binding protein 1 (PABPC1) (from UniProt P11940 1-636) |
| binds | Protein associated with LIN7 1, MAGUK P55 family member (PALS1) (from UniProt Q8N3R9 1-675) |
| binds | Integrin alpha-7 (ITGA7) (receptor) |
| binds | Plasma membrane calcium-transporting ATPase 1 (ATP2B1) (from UniProt P20020 1-1220) |
| no binding | integrin β1 (ITGB1) (from UniProt P05556 21-798) (receptor) |
| binds | B1 |
| binds | B2 |
| binds | B3 |
| binds | B4 |
| binds | B5 |
